PubChem BioAssay AID540256 (National Center for Advancing Translational Sciences (NCATS), 2011)
The whole screen tested about 300,000 compounds, of which about 3,700 (1.2%) were called active. Where a call stands in place of a potency, no number is given. Inconclusive means that the source gave no clear call. Such entries were picked first, then a sample of the others. The call rests on the fitted dose curve; tested in HEK293 cells. Potencies of inconclusive entries are doubtful fits and often do not repeat.

Assay: qHTS for Inhibitors of binding or entry into cells for Lassa Virus; further: nearly all actives have a fitted effect of over 50% in size
Details: Lassa virus pseudotype entry inhibition, cell reporter; series mostly up to 37.9 µM
Potency means the concentration at half of the fitted maximal effect.

Compound	Potency
N#Cc1cccc(NC(=O)c2ccccc2C(=O)O)c1	inactive
Cc1ccccc1C(C(=O)NCc1ccccc1)N(Cc1ccco1)C(=O)c1ccccn1 (configuration not stated)	inconclusive: 6.51 µM [inhibitor, single point]
COc1ccc(Oc2c(OC)cc([N+](=O)[O-])c3ncccc23)cc1	inactive
Cc1nc(CN(C)C(=O)c2cc(COc3ccc4ncccc4c3)on2)cs1	inconclusive: 5.62 µM [inhibitor, full curve, poor fit]
Fc1ccc([C@@H]2CCNC[C@H]2COc2ccc3c(c2)OCO3)cc1	inconclusive: 23.1 µM [inhibitor, partial curve, poor fit]
O=C1/C(=C\c2ccccc2)CCC/C1=C/c1ccccc1	inconclusive: 20 µM [inhibitor, single point]
O=C(c1ccccc1)c1cn(CC(=O)N2CCCc3ccccc32)c2ccccc12	inconclusive: 29.1 µM [inhibitor, single point]
COC(=O)CNC(=O)c1ccc(F)cc1	inactive
COc1cc(NC(=O)c2cccc3c2C(=O)N(C2CCCCC2)C3)cc(OC)c1OC	inconclusive: 22.4 µM [inhibitor, single point]
Cc1ccc(C(C)C)c(OCC(=O)N2CCN(c3ncccn3)CC2)c1	inactive
CCOP1(=O)C=C(C(C)(C)C)OC1c1ccc(F)cc1 (configuration not stated)	inconclusive: 8.91 µM [inhibitor, partial curve]
Cc1ccc2oc3nc(C)c(C(=O)O)cc3c(=O)c2c1	inconclusive: 4.47 µM [activator, single point]
CC(=O)c1ccc(N2CCN(C(=O)Cc3cccs3)CC2)cc1	inactive
Cc1ccccc1NC(=O)Cc1nc(COC(=O)CCNS(=O)(=O)c2ccccc2)cs1	inactive
COc1ccc(CCNc2nc(N3CCCCC3)nc(N3CCCCC3)n2)cc1OC	inconclusive: 7.94 µM [inhibitor, partial curve]
Nc1nc(CSc2nc3ccccc3s2)nc(N2CCOCC2)n1	inactive
Cc1cccc(NC(=O)C2c3ccccc3Oc3ccccc32)n1	inconclusive: 18.3 µM [inhibitor, single point]
ClCc1ncc(-c2ccc(Cl)cc2)o1	inconclusive: 7.08 µM [activator, partial curve, poor fit]
OC1(c2ccccc2F)CCN(Cc2nnnn2CCc2ccccc2)CC1	inconclusive: 25.9 µM [inhibitor, single point]
CN(C)CCCNc1cc(C(C)(C)C)nc2c(-c3ccc(Cl)cc3)cnn12	inconclusive: 3.16 µM [activator, single point]
CC(C)(C=O)C1=CC(=O)c2ccccc2C1=O	inconclusive: 20 µM [inhibitor, single point]

An excerpt of these results, with bars between the fields.
Compound | Potency
CC(=O)c1ccc(N2CCN(C(=O)Cc3cccs3)CC2)cc1 | inactive
Cc1ccccc1NC(=O)Cc1nc(COC(=O)CCNS(=O)(=O)c2ccccc2)cs1 | inactive

(cont.)

Compound	Potency
CCOC(=O)N1CCC(NC(=O)C2CCN(c3nc(-c4ccc(OC)cc4)no3)CC2)CC1	inactive
CCN=c1scc(C)n1/N=C/c1ccsc1	inactive
O=C(/C=C/c1ccc(F)cc1)c1ccccc1Br	inconclusive: 35.5 µM [inhibitor, single point]
CCC(=O)Nc1nc(C)c(-c2csc(Nc3ccc(C(=O)O)cc3)n2)s1	inactive
CN(C)C(=O)c1cc(C(=O)c2ccccc2)c[nH]1	inconclusive: 11.2 µM [activator, partial curve, poor fit]
CCOC(=O)/C=C/C(=O)Nc1ccc(S(=O)(=O)Nc2c(C)cc(C)cc2C)cc1	inactive
CC1CCCCN1C(=O)c1cc2nc(-c3ccccc3)cc(-c3ccccc3)n2n1 (configuration not stated)	inactive
Cc1ccccc1NC(=O)c1sc(NC(=O)C2CC2)nc1C	inactive
COc1ccc(OC)c(CNC(=O)C(C)n2c(C)c3cnn(-c4ccccc4)c(=O)c3c2C)c1 (configuration not stated)	inactive
COc1ccc(/C(C)=N/NC(=O)c2cccc(S(=O)(=O)N3CCCC3)c2)c(O)c1	inconclusive: 3.98 µM [inhibitor, full curve, poor fit]
O=C(CSc1ccc([N+](=O)[O-])cn1)Nc1cc(C(F)(F)F)ccc1N1CCOCC1	inactive
CCOC(=O)N(C)c1ccc(C(O)(C(F)(F)F)C(F)(F)F)cc1	inconclusive: 7.08 µM [inhibitor, partial curve]
Cc1ccccc1NC(=O)CSc1nnc(Cc2ccccc2)c(=O)n1N	inactive
COc1ccccc1N1C(=O)Cc2ccccc2C1=O	inactive
O=C(CCc1ccccc1)NNC(=S)NC(=O)c1ccccc1	inactive
Cc1cc(NC(=O)CSc2nnc(C)n2C)no1	inactive
CCOc1ccccc1CNC(=O)c1cc2oc3ccccc3c2n1C	inconclusive: 16.4 µM [inhibitor, partial curve, poor fit]
CN(C(=O)c1ccc(Cl)cc1)C1=CCCCC1CCC#N (configuration not stated)	inactive
CCc1ccc(C(=O)c2cn(CC(=O)Nc3ccc4c(c3)OCO4)c3ccc(OC)cc3c2=O)cc1	inactive
O=C1COc2ccc(S(=O)(=O)CCC(=O)N3CCN(c4cccc(C(F)(F)F)c4)CC3)cc2N1	inconclusive: 35.5 µM [inhibitor, partial curve, poor fit]
CCC(C)(C)C1CCC(=NNC(=S)Nc2ccccc2)CC1 (configuration not stated)	inconclusive: 35.5 µM [inhibitor, single point]
